Results from PubChem BioAssay AID2685 (National Center for Advancing Translational Sciences (NCATS), 2010).
The list shows a part of the results. Further columns of the screen follow, without active or inactive calls. Compounds called inactive in the main read-out are mostly missing here. Potencies come from curve fits of mixed quality, noted in brackets.

Assay: qHTS Assay for Lipid Storage Modulators in Drosophila S3 Cells;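 for cell number change: cells counted by Cell Tracker Red CMTPX staining in the red channel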
Conditions: BODIPY lipid droplet fluorescence, 18-24 h; for cell number change: measured here: cell count max response, cells fed with added oleic acid
In short: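 Drosophila S3 cells loaded with oleic acid (400 uM, as added) and compounds at several concentrations; lipid droplets imaged by 488-nm laser-scanning cytometry, 500–530 nm intensity and object ratio to cell channel. Percent activity normalized to 20 uM Triacsin C.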

[1] = measured here: lipid fluorescence (Fed channel) AC50, cells fed with added oleic acid
[2] = measured here: cell number channel AC50, cells fed with added oleic acid

Row | SMILES | cell number change [%] | AC50 [1] | AC50 [2]
1 | CC1CCCCN1C(=O)c1ccccc1NC(=O)c1ccco1 (stereo not drawn) | 11.4 | 23.1 µM [falling, partial curve] | –
2 | COc1ccccc1C(=O)COC(=O)Cn1nc(C)c([N+](=O)[O-])c1C | -13.2 | – | 1.84 µM [falling, partial curve]
3 | Oc1ccc(Cl)cc1CNc1nccs1 | 14.4 | – | –
4 | CCNc1nc(-c2ccc(Cl)cc2)cs1 | -32.6 | 23.1 µM [falling, single point] | 29.1 µM [falling, single point]
5 | CCN(CC(=O)Nc1ccc(NC(C)=O)cc1)C(=O)c1ccc(N2CCC(C)CC2)c([N+](=O)[O-])c1 | 5.7 | 0.517 µM [falling, full curve] | 0.517 µM [falling, full curve]
6 | COCCn1c(COc2ccccc2)nnc1SCC(N)=O | -0.862 | 20.6 µM [falling, partial curve] | –
7 | CC1=C(C(=O)NCc2ccc(Cl)cc2)C2(CCC(C)CC2)OC1=O (stereo not drawn) | – | 0.517 µM [rising, single point] | 0.461 µM [rising, partial curve, poor fit]
8 | COc1ccc(/C=C/C(=O)c2ccncc2)c2ccccc12 | -15.5 | 29.1 µM [falling, single point] | –
9 | Cc1cc(NC(=O)CSc2nc3ccccc3c(=O)n2C(C)c2ccccc2)no1 (stereo not drawn) | – | 3.26 µM [rising, partial curve] | 2.91 µM [rising, single point]
10 | COC(=O)c1ccc(CNC(=O)CCNC(=O)c2ccco2)cc1 | -14 | 1.46 µM [falling, partial curve, poor fit] | 0.164 µM [falling, full curve, poor fit]
11 | O=C(OC1CCOC1=O)c1cc(-c2ccc(Cl)cc2)nc2ccccc12 (stereo not drawn) | -9.66 | – | –
12 | Cc1ccc(-c2nnc(SCC#CCOC(=O)c3cccs3)o2)cc1 | 46.5 | – | 8.2 µM [rising, partial curve, poor fit]
13 | COc1cccc([C@@H]2Oc3ccc(OC)cc3C(=O)[C@H]2O)c1 | -30.2 | 0.00517 µM [falling, full curve, poor fit] | 0.206 µM [falling, full curve, poor fit]
14 | Cc1ccc(S(=O)(=O)NCC(=O)OCc2cc(=O)oc3cc(C)ccc23)cc1 | -28 | 23.1 µM [falling, single point] | –
15 | CC(=O)Nc1nc(CC(=O)c2ccccc2)cs1 | – | 2.06 µM [rising, partial curve] | 2.91 µM [rising, partial curve]
16 | O=C(COC(=O)/C=C/c1ccccc1)Nc1cccc(Oc2ccccc2)c1 | -18.8 | 0.366 µM [falling, full curve, poor fit] | –
17 | O=C(Nc1ccc(Cl)cc1Cl)NC1CCCC1 | -14.5 | – | –
18 | CC(=O)N1CC2(C)CN(C(C)=O)CC(C)(C1)C2=O | – | 7.31 µM [falling, partial curve] | 6.51 µM [falling, single point]
19 | CCCc1cc(=O)oc2cc(C)cc(OC(C)C(=O)NCc3ccccn3)c12 (stereo not drawn) | 18.2 | 16.4 µM [falling, single point] | –
20 | Cc1ccc2c(c1)C1CN(C)CCC1N2C(=S)Nc1ccc(OC(F)F)cc1 (stereo not drawn) | -27.7 | 2.06 µM [rising, partial curve] | –

Row | SMILES | cell number change [%] | AC50 [1] | AC50 [2]
21 | CC(C)CCNC(=O)CSc1nnc(-c2ccc(S(=O)(=O)N3CCCC3)cc2)n1C | – | – | 0.651 µM [rising, single point]
22 | O=C(CSc1nc(-c2ccc(F)cc2)cc(C(F)(F)F)n1)NCc1cccs1 | 47.4 | 1.64 µM [rising, partial curve] | 7.31 µM [rising, partial curve]
23 | CN(C)S(=O)(=O)c1cc(C(=O)O)c(NC2CCCCC2)cc1Cl | 5.55 | 14.6 µM [falling, partial curve] | –
24 | CC(C(=O)O)N1C(=O)C2C3CC(C2C1=O)C1C(c2ccccc2)c2sc(=O)[nH]c2SC31 (stereo not drawn) | -2.67 | – | 6.51 µM [falling, single point]
25 | CCOC(=O)C1(C)NC(c2cccs2)C2C(=O)N(c3ccc(C)cc3)C(=O)C21 (stereo not drawn) | 2.65 | – | –
26 | NC(=O)c1ccccc1NC(=O)COc1ccc(Cl)cc1 | 24.6 | 0.92 µM [rising, partial curve, poor fit] | –
27 | COCc1cc(C)nc(N/N=C/c2ccc(-c3ccc(Cl)cc3[N+](=O)[O-])o2)c1C#N | – | 20.6 µM [rising, single point] | –
28 | NNC(=O)c1sc(-c2ccccc2)cc1N | 8.2 | 29.1 µM [rising, single point] | –
29 | Cc1cccc(N(C(=O)c2snc(C(N)=O)c2N)C(C(=O)NCC2CCCO2)c2ccc(N(C)C)cc2)c1 (stereo not drawn) | – | 1.84 µM [rising, single point] | –
30 | CCCCC(CC(C)O)c1n[nH]c(=S)n1-c1ccccc1 (stereo not drawn) | 1.76 | 1.3 µM [rising, single point] | –
31 | CCn1c(=O)n(CC)c2cc(S(=O)(=O)N3CCOCC3)ccc21 | 2.25 | – | –
32 | Cc1ccc(NC(=O)NC2CCCCC2)cc1S(=O)(=O)N1CCOCC1 | 47.8 | – | 9.2 µM [rising, partial curve, poor fit]
33 | Cc1ccc(OCC(=O)N2CCc3ccccc3C2)c(Br)c1 | 13.5 | 0.58 µM [falling, single point] | –
34 | CC(=O)N1CCc2cc(S(=O)(=O)NC(CC(C)C)C(=O)Nc3cc(C)ccn3)ccc21 (stereo not drawn) | 14.2 | – | –
35 | Cc1cc(S(=O)(=O)NC2CCCCC2)c(C)s1 | -35.3 | 25.9 µM [falling, partial curve, poor fit] | 25.9 µM [falling, partial curve, poor fit]
36 | CCOC(=O)c1ccc(-c2ccc(/C=N/NC(=O)CN(c3ccccc3Cl)S(C)(=O)=O)o2)cc1 | -13.8 | 18.4 µM [falling, single point] | –
37 | O=C1c2cccnc2C(Nc2ccccc2)N1Cc1ccco1 (stereo not drawn) | – | 0.731 µM [rising, single point] | –
38 | N#CCn1c(CN2CCCC2)nc2ccccc2c1=O | 23.5 | – | –
39 | CN1CCN(c2nc(Nc3cccc(C(F)(F)F)c3)nc(N3CCOCC3)n2)CC1 | -32.1 | 2.91 µM [rising, single point] | 29.1 µM [falling, single point]
40 | CCOc1ccc(-n2c(=O)c3c4c(sc3n(CC(=O)NCc3ccco3)c2=O)CCC4)cc1 | 6.67 | 0.517 µM [rising, single point] | –

Full records as entered above.
Oc1ccc(Cl)cc1CNc1nccs1 is listed as cell number change [%]: 14.4
CC1CCCCN1C(=O)c1ccccc1NC(=O)c1ccco1 (stereo not drawn) is listed as cell number change [%]: 11.4; AC50 [1]: 23.1 µM [falling, partial curve]
CCOC(=O)c1ccc(-c2ccc(/C=N/NC(=O)CN(c3ccccc3Cl)S(C)(=O)=O)o2)cc1 is listed as cell number change [%]: -13.8; AC50 [1]: 18.4 µM [falling, single point]

As entered above:
cell number change [%], NNC(=O)c1sc(-c2ccccc2)cc1N is entered as 8.2
AC50 [1], COCc1cc(C)nc(N/N=C/c2ccc(-c3ccc(Cl)cc3[N+](=O)[O-])o2)c1C#N is entered as 20.6 µM [rising, single point]

(continued)

Row | SMILES | cell number change [%] | AC50 [1] | AC50 [2]
41 | S=C(NCc1ccco1)N1CCN(c2cccc(Cl)c2)CC1 | -11.9 | 18.4 µM [falling, partial curve, poor fit] | –
42 | CCCSc1nc(O)c(C2OC(=O)c3c2ccc(OC)c3OC)c(=O)n1C (stereo not drawn) | -19.8 | 4.61 µM [falling, full curve, poor fit] | –
43 | COc1ccccc1N1CCN(C(=O)C2CCN(S(=O)(=O)c3ccc(F)cc3)CC2)CC1 | -16.3 | 29.1 µM [rising, single point] | –
44 | C/C(=N\NC(=S)NCc1ccccc1)c1ccc(C(C)(C)C)cc1 | 35.6 | – | 6.51 µM [rising, partial curve, poor fit]
45 | CC(C(=O)N(C)C1CCCCC1)N1CCC(C(N)=O)CC1 (stereo not drawn) | 22.7 | 0.231 µM [rising, partial curve, poor fit] | –
46 | CCC1(CC)Cc2ccccc2-c2nc3ccccc3c(=O)n21 | – | 32.6 µM [rising, single point] | –
47 | CCCN1CCN(C(=O)c2cn(CC(C)C)c(=O)c3cc(OC)c(OC)cc23)CC1 | -18.1 | – | –
48 | COc1cc2cc(C(=O)N3CCc4ccccc4C3)[nH]c2cc1OC | 18.7 | 14.6 µM [rising, partial curve] | –
49 | OCCC1CN(Cc2nc3c(s2)CCCC3)CCN1CCc1ccccc1 (stereo not drawn) | 19.9 | – | –
50 | O=C(Nc1ccsc1C(=O)N1CCCCCC1)c1ccccc1 | 23.7 | 6.51 µM [rising, single point] | –
51 | N=c1ccn(Cc2ccc(Cl)c(Cl)c2)cc1 | -43.5 | 14.6 µM [falling, partial curve] | 29.1 µM [falling, single point]
52 | COc1cc(C(=O)OCCc2cc3ccccc3c(=O)o2)cc(OC)c1OC | 13.6 | 0.461 µM [rising, partial curve] | –
53 | CCCn1c(SCC(=O)c2cc(C)n(C3CC3)c2C)n[nH]c1=O | -45.6 | 1.84 µM [falling, partial curve] | 29.1 µM [falling, single point]
54 | Cc1ccc[n+](C2C(c3ccc([N+](=O)[O-])cc3)C(C#N)=C([S-])NC2(O)C2CC2)c1 (stereo not drawn) | – | 1.3 µM [falling, partial curve] | 6.51 µM [falling, single point]
55 | O=S(=O)(NCC1CCCO1)c1ccc(NS(=O)(=O)c2ccc(F)cc2)cc1 (stereo not drawn) | 20.4 | 29.1 µM [rising, single point] | –
56 | Cc1ccccc1CNC(=O)c1ccc2ccccc2n1 | 15.8 | 29.1 µM [rising, single point] | –
57 | O=C(OCC(=O)N1CCN(C(=O)c2ccco2)CC1)c1ccc(Cl)c(Cl)c1 | 3.99 | – | –
58 | Clc1ccc(C2=NN=C3COc4ccccc4N3C2)cc1 | 33.5 | 29.1 µM [rising, single point] | 29.1 µM [rising, single point]
59 | CC(=O)O[C@H]1CC[C@@]2(C)[C@@H](CC[C@H]3[C@@H]4CC[C@H](C(C)O)[C@@]4(C)CC(=O)[C@@H]32)C1 (stereo partly drawn) | -17.4 | 0.00517 µM [falling, full curve, poor fit] | –
